The values that follow come from the supplement of paper PMC12819154, “High-throughput peptide-centric local stability assay extends protein–ligand identification to membrane proteins, tissues and bacteria” (Nature Structural & Molecular Biology, 2025).

The chains behind the UniProt entries cited, without tags or fusion partners. Where a name states a change or a piece, a line headed by the entry shows the natural chain unless it says otherwise.
UniProt P0CG12: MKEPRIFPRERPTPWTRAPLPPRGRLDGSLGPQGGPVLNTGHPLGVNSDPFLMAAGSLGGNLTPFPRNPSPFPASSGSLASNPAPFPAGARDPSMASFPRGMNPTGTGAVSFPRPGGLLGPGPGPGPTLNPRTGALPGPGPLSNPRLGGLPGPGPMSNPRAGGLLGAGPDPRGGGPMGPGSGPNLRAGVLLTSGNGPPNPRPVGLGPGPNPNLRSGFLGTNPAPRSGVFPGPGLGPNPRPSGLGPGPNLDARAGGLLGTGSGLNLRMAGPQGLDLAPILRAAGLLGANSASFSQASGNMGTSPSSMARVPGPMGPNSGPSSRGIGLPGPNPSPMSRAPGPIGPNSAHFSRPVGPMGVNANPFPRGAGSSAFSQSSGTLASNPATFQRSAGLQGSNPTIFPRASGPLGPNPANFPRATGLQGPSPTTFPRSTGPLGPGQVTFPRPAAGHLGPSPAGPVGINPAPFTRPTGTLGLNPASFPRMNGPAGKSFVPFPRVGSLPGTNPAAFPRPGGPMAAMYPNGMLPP
UniProt P02794, whole entry: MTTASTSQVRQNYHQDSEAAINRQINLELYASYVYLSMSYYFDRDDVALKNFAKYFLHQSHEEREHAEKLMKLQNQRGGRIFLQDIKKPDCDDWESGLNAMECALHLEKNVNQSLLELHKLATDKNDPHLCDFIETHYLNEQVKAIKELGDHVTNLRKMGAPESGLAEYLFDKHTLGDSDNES
UniProt P0DMU9: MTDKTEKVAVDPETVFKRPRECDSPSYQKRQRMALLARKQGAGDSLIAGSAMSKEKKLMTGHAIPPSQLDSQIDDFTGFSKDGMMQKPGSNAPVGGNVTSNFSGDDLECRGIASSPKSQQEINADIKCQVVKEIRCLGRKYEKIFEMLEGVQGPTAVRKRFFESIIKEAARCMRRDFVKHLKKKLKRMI
UniProt P10109: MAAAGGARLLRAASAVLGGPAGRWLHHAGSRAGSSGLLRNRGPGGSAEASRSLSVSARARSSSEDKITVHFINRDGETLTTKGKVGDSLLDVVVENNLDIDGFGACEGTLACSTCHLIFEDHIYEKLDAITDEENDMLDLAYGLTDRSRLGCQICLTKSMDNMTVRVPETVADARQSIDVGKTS
UniProt P09132: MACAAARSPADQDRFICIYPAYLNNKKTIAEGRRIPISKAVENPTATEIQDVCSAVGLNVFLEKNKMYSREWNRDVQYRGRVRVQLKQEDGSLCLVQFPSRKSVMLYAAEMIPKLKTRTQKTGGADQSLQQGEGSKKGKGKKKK
UniProt P08397: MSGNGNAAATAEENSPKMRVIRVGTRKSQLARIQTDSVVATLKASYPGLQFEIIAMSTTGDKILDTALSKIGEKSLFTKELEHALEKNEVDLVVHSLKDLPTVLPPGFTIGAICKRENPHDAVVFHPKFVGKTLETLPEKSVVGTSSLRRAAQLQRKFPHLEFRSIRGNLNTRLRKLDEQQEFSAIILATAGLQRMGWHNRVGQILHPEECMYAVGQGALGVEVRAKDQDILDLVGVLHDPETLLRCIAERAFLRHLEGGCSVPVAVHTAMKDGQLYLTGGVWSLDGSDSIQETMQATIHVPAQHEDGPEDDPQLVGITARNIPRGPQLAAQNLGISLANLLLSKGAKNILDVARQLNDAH
UniProt P11940, whole entry: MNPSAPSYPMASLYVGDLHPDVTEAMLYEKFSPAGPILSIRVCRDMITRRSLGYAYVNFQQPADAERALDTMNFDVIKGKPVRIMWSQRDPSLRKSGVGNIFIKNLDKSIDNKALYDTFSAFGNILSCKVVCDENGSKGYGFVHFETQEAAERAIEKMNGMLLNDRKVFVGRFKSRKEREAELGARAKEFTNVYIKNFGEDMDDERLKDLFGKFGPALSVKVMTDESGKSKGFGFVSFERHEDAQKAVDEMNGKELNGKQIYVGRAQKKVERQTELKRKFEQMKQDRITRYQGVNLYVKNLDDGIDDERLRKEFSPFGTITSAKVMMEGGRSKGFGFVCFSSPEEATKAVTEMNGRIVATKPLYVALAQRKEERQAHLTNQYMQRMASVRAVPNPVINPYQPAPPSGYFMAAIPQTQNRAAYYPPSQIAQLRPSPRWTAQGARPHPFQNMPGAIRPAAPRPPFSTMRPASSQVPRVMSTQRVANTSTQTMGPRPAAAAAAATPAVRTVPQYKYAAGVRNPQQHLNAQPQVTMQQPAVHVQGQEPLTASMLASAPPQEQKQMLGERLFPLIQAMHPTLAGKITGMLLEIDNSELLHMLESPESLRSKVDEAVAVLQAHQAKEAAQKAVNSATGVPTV
UniProt P09496: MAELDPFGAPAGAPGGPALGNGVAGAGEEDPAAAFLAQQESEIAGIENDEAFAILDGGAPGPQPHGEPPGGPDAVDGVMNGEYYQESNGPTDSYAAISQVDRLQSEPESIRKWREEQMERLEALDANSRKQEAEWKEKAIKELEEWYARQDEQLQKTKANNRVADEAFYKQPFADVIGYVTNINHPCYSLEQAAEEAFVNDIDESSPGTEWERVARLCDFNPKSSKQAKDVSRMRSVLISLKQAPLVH
UniProt P0DPB6, whole entry: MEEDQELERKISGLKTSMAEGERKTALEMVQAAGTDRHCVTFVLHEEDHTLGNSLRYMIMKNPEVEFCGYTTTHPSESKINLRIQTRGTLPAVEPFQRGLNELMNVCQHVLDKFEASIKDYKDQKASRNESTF
UniProt P09429: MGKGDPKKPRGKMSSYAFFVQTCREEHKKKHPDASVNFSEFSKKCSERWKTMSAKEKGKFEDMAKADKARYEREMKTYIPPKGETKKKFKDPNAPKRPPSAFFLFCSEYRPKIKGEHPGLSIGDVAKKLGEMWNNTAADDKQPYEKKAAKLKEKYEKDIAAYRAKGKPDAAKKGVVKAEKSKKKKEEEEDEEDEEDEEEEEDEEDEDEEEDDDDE
UniProt P0CG13, whole entry: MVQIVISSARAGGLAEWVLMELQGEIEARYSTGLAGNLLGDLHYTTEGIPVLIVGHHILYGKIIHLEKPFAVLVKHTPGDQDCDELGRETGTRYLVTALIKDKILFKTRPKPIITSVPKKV

The other results are listed elsewhere or left out. Most values lie at the level of the controls, where differences are scatter.

Compound in this assay: CN[C@@H]1C[C@H]2O[C@@](C)([C@@H]1OC)n1c3ccccc3c3c4c(c5c6ccccc6n2c5c31)C(=O)NC4 [staurosporine]
The assay can be described thus: log2 fold change of tryptic peptide abundance, ligand vs vehicle (limited proteolysis) (log2 ratio); higher = more trypsin-susceptible (destabilized). The note with it: ligand concentration: 20 uM; sample: K562 cleared lysate; digestion: 4 min, 22 C (HT-PELSA RT4min, Orbitrap Astral).
As for “UniProt P0CG12 (peptide sequence: GGGPMGPGSGPNLR, peptide start residue: 173)”, the log2 fold change is 0.21. To “FTH1 (peptide sequence: YFLHQSHEEREHAEK, peptide start residue: 55) (UniProt P02794)” belongs -0.593; to “CT45A10 (peptide sequence: SQQEINADIK, peptide start residue: 118) (UniProt P0DMU9)”, 0.135.

Regarding “FDX1 (peptide sequence: QSIDVGKTS, peptide start residue: 176) (UniProt P10109)”, the log2 fold change worked out at 0.118. To “SRP19 (peptide sequence: TGGADQSLQQGEGSKK, peptide start residue: 122) (UniProt P09132)” belongs -0.126; to “HMBS (peptide sequence: HLEGGCSVPVAVHTAMK, peptide start residue: 256) (UniProt P08397)”, 0.0939.

For “PABPC1 (peptide sequence: SKGFGFVSFER, peptide start residue: 230) (UniProt P11940)”, the log2 fold change is -0.129.

Regarding “CLTA (peptide sequence: SVLISLKQAPLVH, peptide start residue: 236) (UniProt P09496)”, the log2 fold change was determined as 0.951.

For the target “POLR1D (peptide sequence: GLNELMNVCQHVLDKFEASIK, peptide start residue: 99) (UniProt P0DPB6)”, the log2 fold change was -0.441. Consider “HMGB1 (peptide sequence: YEKDIAAYR, peptide start residue: 155) (UniProt P09429)”, for which the log2 fold change stood at 0.167. As for “UniProt P0CG13 (peptide sequence: TRPKPIITSVPK, peptide start residue: 108)”, the log2 fold change turned out to be 0.261.
